Measured values: the supplement of paper PMC12819154, “High-throughput peptide-centric local stability assay extends protein–ligand identification to membrane proteins, tissues and bacteria” (Nature Structural & Molecular Biology, 2025)
This is one part of the list. Most entries show no effect beyond the scatter of the controls.

By UniProt entry, the sequences of proteins in these tests, tags left out. Where a name states a change or a piece, a line headed by the entry shows the natural chain unless it says otherwise.
UniProt Q8TDF6: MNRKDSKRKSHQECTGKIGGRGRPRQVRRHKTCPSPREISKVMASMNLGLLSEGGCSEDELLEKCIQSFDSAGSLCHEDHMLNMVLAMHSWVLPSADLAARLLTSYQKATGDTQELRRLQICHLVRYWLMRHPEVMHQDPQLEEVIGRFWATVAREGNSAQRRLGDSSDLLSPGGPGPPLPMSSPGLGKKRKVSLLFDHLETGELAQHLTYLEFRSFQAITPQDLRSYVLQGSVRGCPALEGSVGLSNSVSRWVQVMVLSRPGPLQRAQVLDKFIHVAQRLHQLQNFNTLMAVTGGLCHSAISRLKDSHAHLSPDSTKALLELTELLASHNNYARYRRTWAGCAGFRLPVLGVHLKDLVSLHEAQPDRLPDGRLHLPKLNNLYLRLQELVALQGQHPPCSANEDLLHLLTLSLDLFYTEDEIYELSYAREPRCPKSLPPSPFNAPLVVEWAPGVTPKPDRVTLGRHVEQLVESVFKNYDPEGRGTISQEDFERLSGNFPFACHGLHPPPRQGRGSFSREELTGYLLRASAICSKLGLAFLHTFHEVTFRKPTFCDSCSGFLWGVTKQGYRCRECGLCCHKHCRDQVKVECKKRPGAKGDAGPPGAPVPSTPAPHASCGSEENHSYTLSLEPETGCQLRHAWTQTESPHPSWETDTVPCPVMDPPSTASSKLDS
UniProt Q8WZA9: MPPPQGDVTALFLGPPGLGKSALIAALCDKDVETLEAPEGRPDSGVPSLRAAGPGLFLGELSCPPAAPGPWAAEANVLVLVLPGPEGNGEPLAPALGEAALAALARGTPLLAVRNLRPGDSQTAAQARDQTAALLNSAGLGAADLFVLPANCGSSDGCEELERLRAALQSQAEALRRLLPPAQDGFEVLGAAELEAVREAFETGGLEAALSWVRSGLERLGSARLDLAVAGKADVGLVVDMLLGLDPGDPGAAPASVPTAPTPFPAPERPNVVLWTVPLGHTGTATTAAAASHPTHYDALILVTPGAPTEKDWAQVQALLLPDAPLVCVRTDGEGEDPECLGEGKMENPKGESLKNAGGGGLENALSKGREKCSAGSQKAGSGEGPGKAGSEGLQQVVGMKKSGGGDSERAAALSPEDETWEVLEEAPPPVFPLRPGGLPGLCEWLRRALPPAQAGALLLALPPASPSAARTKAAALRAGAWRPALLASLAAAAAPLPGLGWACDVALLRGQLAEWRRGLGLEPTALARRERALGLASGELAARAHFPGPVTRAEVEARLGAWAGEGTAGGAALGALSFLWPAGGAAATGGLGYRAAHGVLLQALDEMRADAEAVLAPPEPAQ
UniProt Q8TEH3: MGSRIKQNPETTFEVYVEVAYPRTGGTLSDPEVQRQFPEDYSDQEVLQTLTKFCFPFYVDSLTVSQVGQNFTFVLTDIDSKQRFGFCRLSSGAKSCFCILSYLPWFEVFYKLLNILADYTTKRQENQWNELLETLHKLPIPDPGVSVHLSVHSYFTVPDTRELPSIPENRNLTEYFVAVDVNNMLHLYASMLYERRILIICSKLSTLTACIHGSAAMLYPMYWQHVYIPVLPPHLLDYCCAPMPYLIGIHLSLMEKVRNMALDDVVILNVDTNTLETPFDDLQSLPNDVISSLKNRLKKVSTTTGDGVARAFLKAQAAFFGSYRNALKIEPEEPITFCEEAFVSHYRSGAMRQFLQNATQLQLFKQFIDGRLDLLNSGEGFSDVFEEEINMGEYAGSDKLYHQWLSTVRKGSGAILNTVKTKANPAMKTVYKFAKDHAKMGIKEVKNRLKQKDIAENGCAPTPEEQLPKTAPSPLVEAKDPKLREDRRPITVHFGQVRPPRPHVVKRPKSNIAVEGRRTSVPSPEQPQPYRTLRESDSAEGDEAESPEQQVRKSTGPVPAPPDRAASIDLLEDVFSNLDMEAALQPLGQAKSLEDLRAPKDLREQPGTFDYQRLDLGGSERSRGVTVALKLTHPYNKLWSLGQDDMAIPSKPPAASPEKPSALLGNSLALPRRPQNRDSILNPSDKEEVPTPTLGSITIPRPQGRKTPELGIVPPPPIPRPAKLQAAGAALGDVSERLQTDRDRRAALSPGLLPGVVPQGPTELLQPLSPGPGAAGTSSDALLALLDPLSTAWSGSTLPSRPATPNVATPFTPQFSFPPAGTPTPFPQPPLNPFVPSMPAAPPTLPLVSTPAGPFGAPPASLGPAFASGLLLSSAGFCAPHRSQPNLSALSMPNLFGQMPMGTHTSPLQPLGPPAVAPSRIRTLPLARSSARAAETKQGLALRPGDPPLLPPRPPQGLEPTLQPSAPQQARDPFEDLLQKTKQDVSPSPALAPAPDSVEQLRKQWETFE
UniProt Q8WV44: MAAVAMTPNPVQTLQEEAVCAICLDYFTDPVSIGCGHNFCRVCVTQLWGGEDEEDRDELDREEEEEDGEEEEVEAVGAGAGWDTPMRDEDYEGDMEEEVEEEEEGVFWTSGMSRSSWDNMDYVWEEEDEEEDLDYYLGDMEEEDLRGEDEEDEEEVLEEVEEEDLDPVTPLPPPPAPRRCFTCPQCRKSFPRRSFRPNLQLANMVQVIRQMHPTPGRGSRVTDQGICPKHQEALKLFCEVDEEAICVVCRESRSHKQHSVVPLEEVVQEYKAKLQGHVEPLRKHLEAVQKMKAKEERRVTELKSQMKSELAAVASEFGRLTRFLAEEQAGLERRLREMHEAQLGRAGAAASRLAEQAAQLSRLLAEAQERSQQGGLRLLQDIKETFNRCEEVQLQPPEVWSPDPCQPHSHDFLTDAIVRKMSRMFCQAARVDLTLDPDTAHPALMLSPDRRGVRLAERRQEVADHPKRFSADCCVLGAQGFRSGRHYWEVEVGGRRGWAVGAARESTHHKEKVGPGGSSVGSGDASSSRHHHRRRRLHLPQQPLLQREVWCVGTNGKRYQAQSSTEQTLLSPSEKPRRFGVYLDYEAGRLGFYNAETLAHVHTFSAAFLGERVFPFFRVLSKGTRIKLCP
UniProt Q8WUW1: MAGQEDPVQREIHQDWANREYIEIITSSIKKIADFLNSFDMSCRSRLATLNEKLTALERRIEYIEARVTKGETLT
UniProt Q92610: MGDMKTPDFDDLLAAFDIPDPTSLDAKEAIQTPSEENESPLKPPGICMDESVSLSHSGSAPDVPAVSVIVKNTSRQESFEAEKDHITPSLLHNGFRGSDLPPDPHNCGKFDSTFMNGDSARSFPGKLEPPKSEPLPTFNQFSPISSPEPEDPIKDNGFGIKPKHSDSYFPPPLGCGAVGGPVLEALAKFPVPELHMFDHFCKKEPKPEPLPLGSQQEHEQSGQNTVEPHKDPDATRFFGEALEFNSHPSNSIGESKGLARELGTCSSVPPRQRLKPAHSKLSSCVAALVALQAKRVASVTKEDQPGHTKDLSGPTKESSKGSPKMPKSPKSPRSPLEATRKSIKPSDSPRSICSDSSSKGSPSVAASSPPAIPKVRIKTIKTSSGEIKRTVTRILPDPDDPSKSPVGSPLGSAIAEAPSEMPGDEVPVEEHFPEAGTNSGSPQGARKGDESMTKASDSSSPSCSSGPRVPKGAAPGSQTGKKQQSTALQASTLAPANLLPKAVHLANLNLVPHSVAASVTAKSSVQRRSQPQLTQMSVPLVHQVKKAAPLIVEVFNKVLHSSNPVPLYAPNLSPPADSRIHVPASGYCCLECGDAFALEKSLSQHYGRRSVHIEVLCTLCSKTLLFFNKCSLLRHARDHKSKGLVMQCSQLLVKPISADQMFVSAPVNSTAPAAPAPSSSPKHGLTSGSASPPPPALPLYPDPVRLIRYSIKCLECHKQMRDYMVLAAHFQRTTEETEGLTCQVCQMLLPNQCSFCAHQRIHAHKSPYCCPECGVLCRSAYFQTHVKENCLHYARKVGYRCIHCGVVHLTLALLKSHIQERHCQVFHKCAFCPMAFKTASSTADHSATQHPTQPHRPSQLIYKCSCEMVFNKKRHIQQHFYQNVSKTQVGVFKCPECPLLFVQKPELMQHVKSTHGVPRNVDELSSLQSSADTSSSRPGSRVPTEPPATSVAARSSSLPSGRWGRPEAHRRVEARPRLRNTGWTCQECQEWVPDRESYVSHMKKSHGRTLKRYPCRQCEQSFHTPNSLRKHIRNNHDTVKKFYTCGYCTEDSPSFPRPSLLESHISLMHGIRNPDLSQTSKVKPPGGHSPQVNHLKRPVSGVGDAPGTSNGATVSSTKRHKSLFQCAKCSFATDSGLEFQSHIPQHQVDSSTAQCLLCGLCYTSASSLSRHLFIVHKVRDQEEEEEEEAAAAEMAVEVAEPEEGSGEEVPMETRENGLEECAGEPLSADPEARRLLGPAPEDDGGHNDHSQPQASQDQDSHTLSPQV
UniProt Q8WVK2: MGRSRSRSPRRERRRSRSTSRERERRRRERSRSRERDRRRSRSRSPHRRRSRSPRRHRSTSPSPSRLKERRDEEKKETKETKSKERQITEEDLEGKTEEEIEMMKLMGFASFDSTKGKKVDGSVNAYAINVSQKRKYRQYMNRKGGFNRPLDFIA
UniProt Q8WUH1: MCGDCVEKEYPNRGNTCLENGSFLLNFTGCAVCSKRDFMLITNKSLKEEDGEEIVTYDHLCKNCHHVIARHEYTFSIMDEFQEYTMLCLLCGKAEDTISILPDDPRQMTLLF
UniProt Q8TF74: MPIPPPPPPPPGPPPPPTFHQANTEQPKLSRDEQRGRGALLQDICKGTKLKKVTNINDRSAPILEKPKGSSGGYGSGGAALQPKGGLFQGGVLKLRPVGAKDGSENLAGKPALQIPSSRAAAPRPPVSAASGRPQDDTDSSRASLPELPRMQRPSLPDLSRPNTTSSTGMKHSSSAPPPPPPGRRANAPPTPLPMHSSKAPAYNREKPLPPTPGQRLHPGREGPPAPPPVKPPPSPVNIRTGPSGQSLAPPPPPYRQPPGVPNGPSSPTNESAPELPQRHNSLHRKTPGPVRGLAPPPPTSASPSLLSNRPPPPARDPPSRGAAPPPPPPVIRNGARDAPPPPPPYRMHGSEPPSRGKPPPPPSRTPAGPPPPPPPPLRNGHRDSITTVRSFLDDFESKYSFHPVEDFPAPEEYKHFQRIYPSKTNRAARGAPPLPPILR
UniProt Q8WV99: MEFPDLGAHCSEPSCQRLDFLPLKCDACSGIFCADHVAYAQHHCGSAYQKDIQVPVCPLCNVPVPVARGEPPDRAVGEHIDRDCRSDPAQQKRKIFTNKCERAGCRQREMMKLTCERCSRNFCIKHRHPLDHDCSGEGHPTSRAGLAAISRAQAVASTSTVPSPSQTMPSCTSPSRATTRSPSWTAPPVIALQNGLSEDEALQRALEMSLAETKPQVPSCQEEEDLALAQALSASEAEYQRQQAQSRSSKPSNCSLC
UniProt Q8WXF0: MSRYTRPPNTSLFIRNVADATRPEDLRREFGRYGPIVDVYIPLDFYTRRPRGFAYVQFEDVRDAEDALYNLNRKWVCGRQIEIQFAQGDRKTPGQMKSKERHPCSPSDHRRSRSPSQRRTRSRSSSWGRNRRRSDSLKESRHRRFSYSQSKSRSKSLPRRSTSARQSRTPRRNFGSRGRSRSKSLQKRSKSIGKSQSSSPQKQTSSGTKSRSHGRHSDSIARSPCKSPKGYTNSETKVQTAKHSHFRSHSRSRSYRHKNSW
UniProt Q8TF61: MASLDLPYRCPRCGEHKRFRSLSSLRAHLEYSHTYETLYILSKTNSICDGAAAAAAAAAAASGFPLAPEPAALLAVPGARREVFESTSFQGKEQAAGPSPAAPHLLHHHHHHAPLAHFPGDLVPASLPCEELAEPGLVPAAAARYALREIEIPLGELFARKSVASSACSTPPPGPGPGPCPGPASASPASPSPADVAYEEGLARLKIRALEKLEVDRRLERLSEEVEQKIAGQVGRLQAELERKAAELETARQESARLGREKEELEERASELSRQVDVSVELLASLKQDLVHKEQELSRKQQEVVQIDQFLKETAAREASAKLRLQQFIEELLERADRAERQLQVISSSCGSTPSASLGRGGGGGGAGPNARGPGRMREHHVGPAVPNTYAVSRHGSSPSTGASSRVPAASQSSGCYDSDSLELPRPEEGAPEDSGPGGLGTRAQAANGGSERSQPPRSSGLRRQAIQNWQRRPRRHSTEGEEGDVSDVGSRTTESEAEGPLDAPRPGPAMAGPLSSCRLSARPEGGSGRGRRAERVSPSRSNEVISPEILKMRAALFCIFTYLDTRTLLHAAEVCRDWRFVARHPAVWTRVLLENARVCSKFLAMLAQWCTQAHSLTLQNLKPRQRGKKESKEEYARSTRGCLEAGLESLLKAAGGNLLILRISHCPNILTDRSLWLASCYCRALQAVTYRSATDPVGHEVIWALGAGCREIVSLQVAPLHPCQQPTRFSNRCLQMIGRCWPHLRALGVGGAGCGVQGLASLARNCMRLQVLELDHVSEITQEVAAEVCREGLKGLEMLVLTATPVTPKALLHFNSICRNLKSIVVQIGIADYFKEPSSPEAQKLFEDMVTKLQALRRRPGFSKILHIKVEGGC
UniProt Q8WUD1: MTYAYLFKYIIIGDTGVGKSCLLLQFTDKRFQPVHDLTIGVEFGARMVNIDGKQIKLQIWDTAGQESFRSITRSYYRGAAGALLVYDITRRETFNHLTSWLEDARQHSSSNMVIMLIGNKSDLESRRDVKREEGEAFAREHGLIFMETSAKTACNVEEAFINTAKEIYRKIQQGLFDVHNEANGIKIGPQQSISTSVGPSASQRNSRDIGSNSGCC

Each target was assayed with CN[C@@H]1C[C@H]2O[C@@](C)([C@@H]1OC)n1c3ccccc3c3c4c(c5c6ccccc6n2c5c31)C(=O)NC4 [staurosporine] (assay: log2 fold change of tryptic peptide abundance, ligand vs vehicle (limited proteolysis) (log2 ratio); higher = more trypsin-susceptible (destabilized)). Conditions: ligand concentration: 20 uM; sample: K562 cleared lysate; digestion: 4 min, 22 C (HT-PELSA RT4min, Orbitrap Astral).

Q: How did the log2 fold change turn out when “UniProt Q8WYL5 (peptide sequence: DPAATSKPSGKPAPENLK, peptide start residue: 1024)” was run?
A: -0.485

Q: With “UniProt Q8TDG4 (peptide sequence: AQTPIFSR, peptide start residue: 279)” as the target, how does the log2 fold change read?
A: -0.134

Q: Which log2 fold change does the source give for “CORO2A (peptide sequence: RGLDVSSCEIFR, peptide start residue: 328) (UniProt Q92828)” here?
A: 0.254

Q: With “STARD8 (peptide sequence: AKNWAATSAGGSGANTR, peptide start residue: 179) (UniProt Q92502)” as the target, how does the log2 fold change read?
A: 0.638

Q: How did the log2 fold change turn out when “GBF1 (peptide sequence: LLEAFTER, peptide start residue: 801) (UniProt Q92538)” was run?
A: -0.374

Q: With “PANK1 (peptide sequence: GPVGGSDAAPQR, peptide start residue: 186) (UniProt Q8TE04)” as the target, how does the log2 fold change read?
A: 0.0868

Q: With “SLC39A7 (peptide sequence: DGPVRPQNAEEEKR, peptide start residue: 298) (UniProt Q92504)” as the target, how does the log2 fold change read?
A: 0.513

Q: For “UniProt Q8TDF6 (peptide sequence: LKDSHAHLSPDSTK, peptide start residue: 305)”, which log2 fold change is on record?
A: 0.165

Q: “UniProt Q8TDB8 (peptide sequence: TFEDITR, peptide start residue: 457)” was tested. Which log2 fold change did it give?
A: 0.0163

Q: With “UniProt Q8WZA9 (peptide sequence: MENPKGESLK, peptide start residue: 346)” as the target, how does the log2 fold change read?
A: 0.221

Q: For “DENND1A (peptide sequence: DPKLREDR, peptide start residue: 480) (UniProt Q8TEH3)”, which log2 fold change is on record?
A: 0.153

Q: Which log2 fold change does the source give for “TRIM41 (peptide sequence: LAEQAAQLSR, peptide start residue: 353) (UniProt Q8WV44)” here?
A: -0.159

Q: For “RNASEH2C (peptide sequence: FTLWGLETIPGPDAK, peptide start residue: 129) (UniProt Q8TDP1)”, which log2 fold change is on record?
A: 0.204

Q: How did the log2 fold change turn out when “UniProt Q8WUW1 (peptide sequence: EYIEIITSSIKK, peptide start residue: 20)” was run?
A: 0.352

Q: With “ZNF592 (peptide sequence: RSQPQLTQMSVPLVHQVK, peptide start residue: 528) (UniProt Q92610)” as the target, how does the log2 fold change read?
A: 0.799

Q: With “DCAF4 (peptide sequence: YGIINLQSLK, peptide start residue: 199) (UniProt Q8WV16)” as the target, how does the log2 fold change read?
A: -0.401

Q: For “SNRNP27 (peptide sequence: VDGSVNAYAINVSQK, peptide start residue: 120) (UniProt Q8WVK2)”, which log2 fold change is on record?
A: -0.685

Q: Which log2 fold change does the source give for “UniProt Q8TE49 (peptide sequence: LLPLHFAVDPGK, peptide start residue: 386)” here?
A: 0.31

Q: For “UniProt Q8WV07 (peptide sequence: FHGEGYR, peptide start residue: 18)”, which log2 fold change is on record?
A: -0.159

Q: With “UniProt Q8WUH1 (peptide sequence: DFMLITNK, peptide start residue: 37)” as the target, how does the log2 fold change read?
A: 0.0653

Q: For “WIPF2 (peptide sequence: HSSSAPPPPPPGR, peptide start residue: 172) (UniProt Q8TF74)”, which log2 fold change is on record?
A: 0.429

Q: How did the log2 fold change turn out when “TBCK (peptide sequence: QHAQPPKPSSDSSGGR, peptide start residue: 712) (UniProt Q8TEA7)” was run?
A: -0.271

Q: With “UniProt Q92619 (peptide sequence: HASAAGFPLSGAASWTLGR, peptide start residue: 71)” as the target, how does the log2 fold change read?
A: -0.499

Q: Which log2 fold change does the source give for “UniProt Q8WV37 (peptide sequence: NSHLAEHCR, peptide start residue: 243)” here?
A: 0.575

Q: How did the log2 fold change turn out when “CKAP2 (peptide sequence: PASLSNDKLMEK, peptide start residue: 326) (UniProt Q8WWK9)” was run?
A: 0.643

Q: “ZFAND2B (peptide sequence: HRHPLDHDCSGEGHPTSR, peptide start residue: 126) (UniProt Q8WV99)” was tested. Which log2 fold change did it give?
A: 0.53

Q: “UniProt Q8TBZ8 (peptide sequence: AFNYASSIR, peptide start residue: 485)” was tested. Which log2 fold change did it give?
A: 0.257

Q: Which log2 fold change does the source give for “SLC9A6 (peptide sequence: ELAFGDHELVIR, peptide start residue: 632) (UniProt Q92581)” here?
A: -0.182

Q: Which log2 fold change does the source give for “UniProt Q8WXF0 (peptide sequence: QIEIQFAQGDR, peptide start residue: 80)” here?
A: -0.0759

Q: How did the log2 fold change turn out when “UniProt Q8WVV9 (peptide sequence: ETYEEDREYESQAKR, peptide start residue: 10)” was run?
A: -0.362

Q: For “PCNP (peptide sequence: AGAAGGPEEEAEKPVK, peptide start residue: 17) (UniProt Q8WW12)”, which log2 fold change is on record?
A: -0.124

Q: “STAM (peptide sequence: VMEALSLYTK, peptide start residue: 364) (UniProt Q92783)” was tested. Which log2 fold change did it give?
A: -0.0821

Q: Which log2 fold change does the source give for “UniProt Q8TF61 (peptide sequence: EKEELEER, peptide start residue: 261)” here?
A: 0.192

Q: For “LRRC20 (peptide sequence: FDMLMSPEGAR, peptide start residue: 170) (UniProt Q8TCA0)”, which log2 fold change is on record?
A: 0.412

Q: Which log2 fold change does the source give for “RAB2B (peptide sequence: IGPQQSISTSVGPSASQR, peptide start residue: 187) (UniProt Q8WUD1)” here?
A: -0.196

Q: How did the log2 fold change turn out when “TFG (peptide sequence: QSTQVMAASMSAFDPLK, peptide start residue: 156) (UniProt Q92734)” was run?
A: 0.296

Q: How did the log2 fold change turn out when “GTF3C2 (peptide sequence: GMAPNGLPNHIMAPVWK, peptide start residue: 293) (UniProt Q8WUA4)” was run?
A: -0.812
